Some of the results follow.
Columns and labels:
Experiment in all cases: log2 fold change, soluble protein after heating vs DMSO (PISA); higher = thermal stabilisation; K562 cells, 10 uM, 30 min; active = over 0.2 and 3.5 SD of the protein, either way, in both replicates (recomputed)
bafetinib = compound: Cc1ccc(NC(=O)c2ccc(CN3CC[C@H](N(C)C)C3)c(C(F)(F)F)c2)cc1Nc1nccc(-c2cncnc2)n1 [bafetinib]
Outline: (§1)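 Soluble protein was defined as the supernatant after 21,000xg for 90 min. It came from K562 cells at 2×10^6 cells/mL given 10 μM compound for 30 min, heated in aliquots for 3 min across 48°C-58°C, pooled, and extracted in PBS with 0.5% NP-40 at 4°C, and was quantified by TMTpro 16plex LC-MS/MS with equalised channel sums. Thermal stability against control samples, from duplicates, is reported as log2 fold change.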

Amino acid sequences for entries named in this document (tags omitted). A change or cut given only in a name is not applied to a line headed by its entry.
UniProt P39880: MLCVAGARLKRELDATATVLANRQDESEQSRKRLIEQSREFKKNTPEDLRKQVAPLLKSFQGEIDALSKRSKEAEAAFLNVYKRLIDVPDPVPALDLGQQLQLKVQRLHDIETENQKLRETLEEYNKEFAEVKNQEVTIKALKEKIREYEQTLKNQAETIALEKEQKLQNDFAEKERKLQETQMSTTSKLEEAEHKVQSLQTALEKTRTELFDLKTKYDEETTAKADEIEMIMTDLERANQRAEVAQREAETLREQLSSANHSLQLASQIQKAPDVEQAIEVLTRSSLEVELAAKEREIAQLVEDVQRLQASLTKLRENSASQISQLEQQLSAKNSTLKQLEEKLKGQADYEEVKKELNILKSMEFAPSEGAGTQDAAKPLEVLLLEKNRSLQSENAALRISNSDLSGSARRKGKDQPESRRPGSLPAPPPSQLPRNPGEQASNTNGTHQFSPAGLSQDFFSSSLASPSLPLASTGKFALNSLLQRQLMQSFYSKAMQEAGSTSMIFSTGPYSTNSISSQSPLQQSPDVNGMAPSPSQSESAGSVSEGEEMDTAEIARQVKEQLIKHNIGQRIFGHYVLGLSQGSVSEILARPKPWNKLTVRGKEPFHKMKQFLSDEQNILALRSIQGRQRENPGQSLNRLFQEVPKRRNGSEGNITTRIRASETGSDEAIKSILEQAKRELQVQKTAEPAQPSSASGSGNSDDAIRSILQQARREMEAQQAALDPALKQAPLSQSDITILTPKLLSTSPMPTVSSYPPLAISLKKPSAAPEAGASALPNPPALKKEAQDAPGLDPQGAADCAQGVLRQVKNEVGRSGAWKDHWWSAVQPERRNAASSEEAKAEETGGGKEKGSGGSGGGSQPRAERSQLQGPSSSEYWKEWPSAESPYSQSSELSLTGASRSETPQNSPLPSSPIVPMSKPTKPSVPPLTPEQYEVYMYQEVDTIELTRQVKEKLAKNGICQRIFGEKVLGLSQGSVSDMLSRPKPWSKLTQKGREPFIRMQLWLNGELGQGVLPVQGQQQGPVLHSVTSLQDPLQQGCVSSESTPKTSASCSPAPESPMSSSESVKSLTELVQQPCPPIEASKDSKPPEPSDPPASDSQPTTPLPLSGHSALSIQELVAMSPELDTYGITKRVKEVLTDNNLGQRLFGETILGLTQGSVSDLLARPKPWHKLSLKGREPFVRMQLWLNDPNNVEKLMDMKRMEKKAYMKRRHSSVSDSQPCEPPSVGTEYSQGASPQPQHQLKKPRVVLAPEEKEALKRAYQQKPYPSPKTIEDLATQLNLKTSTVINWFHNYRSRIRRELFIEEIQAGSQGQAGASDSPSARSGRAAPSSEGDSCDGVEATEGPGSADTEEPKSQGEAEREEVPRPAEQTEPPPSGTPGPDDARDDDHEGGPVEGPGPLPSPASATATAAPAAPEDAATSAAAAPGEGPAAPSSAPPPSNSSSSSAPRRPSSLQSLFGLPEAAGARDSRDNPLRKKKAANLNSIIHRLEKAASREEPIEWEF
UniProt Q01459: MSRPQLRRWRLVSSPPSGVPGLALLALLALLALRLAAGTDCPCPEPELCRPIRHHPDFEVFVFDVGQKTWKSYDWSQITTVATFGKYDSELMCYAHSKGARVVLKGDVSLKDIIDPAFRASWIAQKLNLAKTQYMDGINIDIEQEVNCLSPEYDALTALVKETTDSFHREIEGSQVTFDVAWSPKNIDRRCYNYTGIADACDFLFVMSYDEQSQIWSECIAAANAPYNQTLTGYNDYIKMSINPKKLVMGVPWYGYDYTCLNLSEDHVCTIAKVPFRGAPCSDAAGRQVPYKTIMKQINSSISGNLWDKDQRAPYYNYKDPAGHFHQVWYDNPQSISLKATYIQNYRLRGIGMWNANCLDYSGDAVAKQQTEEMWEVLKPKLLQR
UniProt Q9NXE8: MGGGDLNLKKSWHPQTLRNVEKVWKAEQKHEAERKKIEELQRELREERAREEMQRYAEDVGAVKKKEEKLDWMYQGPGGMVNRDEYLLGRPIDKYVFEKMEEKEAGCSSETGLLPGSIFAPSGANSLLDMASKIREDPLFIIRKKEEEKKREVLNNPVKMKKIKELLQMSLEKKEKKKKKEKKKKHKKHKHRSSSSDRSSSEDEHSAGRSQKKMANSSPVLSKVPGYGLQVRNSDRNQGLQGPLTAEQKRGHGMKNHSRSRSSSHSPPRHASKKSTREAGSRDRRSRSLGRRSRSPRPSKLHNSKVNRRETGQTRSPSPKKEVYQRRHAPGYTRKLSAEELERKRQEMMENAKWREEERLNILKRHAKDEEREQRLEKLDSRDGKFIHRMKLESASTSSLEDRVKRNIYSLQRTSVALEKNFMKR
UniProt Q05048: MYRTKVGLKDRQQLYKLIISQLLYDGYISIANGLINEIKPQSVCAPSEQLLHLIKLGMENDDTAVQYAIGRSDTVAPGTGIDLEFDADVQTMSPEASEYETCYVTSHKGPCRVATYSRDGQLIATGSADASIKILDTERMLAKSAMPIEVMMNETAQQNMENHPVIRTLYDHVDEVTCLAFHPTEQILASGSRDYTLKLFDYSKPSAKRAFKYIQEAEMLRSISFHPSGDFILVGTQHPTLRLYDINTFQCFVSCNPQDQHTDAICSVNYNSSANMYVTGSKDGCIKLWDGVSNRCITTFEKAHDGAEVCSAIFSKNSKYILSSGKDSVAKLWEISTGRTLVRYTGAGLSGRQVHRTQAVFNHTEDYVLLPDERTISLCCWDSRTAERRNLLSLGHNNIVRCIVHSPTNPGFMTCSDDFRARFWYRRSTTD
UniProt Q8WUE5: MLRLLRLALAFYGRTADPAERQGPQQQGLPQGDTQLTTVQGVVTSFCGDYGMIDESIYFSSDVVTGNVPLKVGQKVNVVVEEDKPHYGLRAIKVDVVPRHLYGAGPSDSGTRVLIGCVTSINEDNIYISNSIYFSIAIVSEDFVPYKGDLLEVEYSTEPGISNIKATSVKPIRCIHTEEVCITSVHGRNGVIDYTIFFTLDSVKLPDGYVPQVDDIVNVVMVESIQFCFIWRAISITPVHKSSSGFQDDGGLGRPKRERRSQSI
UniProt P04080: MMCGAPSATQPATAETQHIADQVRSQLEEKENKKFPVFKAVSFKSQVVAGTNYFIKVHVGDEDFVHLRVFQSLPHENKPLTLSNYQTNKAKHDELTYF
UniProt Q8NBI2: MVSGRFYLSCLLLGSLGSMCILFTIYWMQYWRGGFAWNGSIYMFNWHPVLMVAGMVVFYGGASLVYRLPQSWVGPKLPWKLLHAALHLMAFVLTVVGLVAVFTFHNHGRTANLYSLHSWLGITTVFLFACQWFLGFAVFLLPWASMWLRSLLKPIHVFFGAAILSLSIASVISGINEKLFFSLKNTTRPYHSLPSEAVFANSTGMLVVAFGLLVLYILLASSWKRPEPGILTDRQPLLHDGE
UniProt Q66K64, whole entry, looked up: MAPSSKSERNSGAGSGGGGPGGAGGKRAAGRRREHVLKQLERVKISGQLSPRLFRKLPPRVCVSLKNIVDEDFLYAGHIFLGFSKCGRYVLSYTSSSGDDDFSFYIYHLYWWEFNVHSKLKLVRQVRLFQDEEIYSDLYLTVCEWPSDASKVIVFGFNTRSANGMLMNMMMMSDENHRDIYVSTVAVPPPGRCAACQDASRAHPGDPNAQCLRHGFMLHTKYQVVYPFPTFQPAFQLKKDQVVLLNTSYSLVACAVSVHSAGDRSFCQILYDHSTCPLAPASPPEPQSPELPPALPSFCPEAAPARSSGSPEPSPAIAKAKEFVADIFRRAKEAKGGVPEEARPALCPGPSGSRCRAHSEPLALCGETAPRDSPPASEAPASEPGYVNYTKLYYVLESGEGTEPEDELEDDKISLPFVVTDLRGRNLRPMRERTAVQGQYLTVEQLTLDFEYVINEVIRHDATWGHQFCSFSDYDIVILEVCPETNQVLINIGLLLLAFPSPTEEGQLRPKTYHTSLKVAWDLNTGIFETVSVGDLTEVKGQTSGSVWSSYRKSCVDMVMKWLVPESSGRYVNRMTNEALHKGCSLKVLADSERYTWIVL
UniProt Q9Y6A2: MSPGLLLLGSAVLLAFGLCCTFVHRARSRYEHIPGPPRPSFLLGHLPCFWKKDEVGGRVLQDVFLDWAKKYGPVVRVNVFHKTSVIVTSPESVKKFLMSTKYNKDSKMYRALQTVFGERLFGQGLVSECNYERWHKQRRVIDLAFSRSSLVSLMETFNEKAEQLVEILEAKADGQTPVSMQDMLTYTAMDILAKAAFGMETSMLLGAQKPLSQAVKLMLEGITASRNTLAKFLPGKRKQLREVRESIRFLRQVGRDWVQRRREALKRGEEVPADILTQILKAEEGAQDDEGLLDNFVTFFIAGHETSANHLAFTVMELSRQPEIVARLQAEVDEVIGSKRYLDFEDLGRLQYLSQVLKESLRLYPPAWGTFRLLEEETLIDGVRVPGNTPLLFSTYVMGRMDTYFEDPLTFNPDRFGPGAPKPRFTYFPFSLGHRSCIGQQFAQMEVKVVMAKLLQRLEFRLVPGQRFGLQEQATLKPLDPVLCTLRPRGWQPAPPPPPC
UniProt Q9UER7, whole entry, looked up: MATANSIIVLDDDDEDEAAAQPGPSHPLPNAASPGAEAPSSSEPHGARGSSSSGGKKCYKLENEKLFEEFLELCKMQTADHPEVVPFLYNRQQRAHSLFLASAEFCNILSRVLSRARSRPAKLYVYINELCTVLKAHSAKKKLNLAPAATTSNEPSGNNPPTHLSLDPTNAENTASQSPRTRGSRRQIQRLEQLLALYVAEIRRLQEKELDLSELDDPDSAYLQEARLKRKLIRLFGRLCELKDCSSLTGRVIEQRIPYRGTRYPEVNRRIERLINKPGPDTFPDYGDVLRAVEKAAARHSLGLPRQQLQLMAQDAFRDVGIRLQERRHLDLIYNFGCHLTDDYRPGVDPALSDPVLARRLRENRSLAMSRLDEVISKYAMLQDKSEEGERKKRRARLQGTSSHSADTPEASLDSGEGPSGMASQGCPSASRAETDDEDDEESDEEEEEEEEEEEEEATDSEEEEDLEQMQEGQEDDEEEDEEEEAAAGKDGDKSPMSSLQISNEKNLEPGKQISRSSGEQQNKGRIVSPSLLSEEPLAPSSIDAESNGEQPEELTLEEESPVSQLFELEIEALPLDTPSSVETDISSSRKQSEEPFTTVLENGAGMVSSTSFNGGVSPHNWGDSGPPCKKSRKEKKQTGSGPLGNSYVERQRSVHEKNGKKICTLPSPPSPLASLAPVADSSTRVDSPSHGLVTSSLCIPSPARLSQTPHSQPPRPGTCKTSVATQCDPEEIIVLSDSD
UniProt P21291: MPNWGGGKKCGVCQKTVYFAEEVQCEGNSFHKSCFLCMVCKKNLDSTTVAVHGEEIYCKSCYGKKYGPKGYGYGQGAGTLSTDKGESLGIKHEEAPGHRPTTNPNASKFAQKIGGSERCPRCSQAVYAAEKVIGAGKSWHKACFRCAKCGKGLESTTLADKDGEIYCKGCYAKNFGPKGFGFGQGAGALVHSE
UniProt Q8TEB1, whole entry, looked up: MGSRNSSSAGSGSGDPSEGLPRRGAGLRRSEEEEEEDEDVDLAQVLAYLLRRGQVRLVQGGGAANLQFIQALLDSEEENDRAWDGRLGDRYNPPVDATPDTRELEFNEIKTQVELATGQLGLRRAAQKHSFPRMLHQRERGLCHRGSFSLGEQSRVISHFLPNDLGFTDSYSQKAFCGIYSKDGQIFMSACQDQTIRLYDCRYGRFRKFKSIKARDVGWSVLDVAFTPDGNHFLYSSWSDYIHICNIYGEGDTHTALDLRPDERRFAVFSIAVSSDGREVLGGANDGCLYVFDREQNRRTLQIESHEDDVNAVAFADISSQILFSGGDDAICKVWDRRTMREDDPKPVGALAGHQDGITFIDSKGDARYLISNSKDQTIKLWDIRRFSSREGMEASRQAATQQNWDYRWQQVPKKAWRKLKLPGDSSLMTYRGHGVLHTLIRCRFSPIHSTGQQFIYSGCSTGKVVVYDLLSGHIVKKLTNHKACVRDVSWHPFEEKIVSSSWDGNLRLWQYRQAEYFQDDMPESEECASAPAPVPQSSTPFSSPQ
UniProt P01037: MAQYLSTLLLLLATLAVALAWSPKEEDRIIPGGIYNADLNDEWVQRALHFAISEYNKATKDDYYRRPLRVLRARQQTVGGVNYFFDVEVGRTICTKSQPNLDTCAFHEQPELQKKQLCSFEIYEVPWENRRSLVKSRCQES
UniProt Q9BWK5: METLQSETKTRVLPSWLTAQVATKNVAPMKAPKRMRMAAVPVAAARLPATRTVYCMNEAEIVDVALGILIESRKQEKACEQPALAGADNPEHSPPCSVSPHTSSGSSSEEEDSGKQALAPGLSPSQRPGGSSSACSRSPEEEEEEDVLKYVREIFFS

[1] = compound: Cc1cccc(CC(=O)N2CCc3c2ccc(-c2cn(C)c4ncnc(N)c24)c3F)n1
Outline: as §1

nilotinib = compound: Cc1cn(-c2cc(NC(=O)c3ccc(C)c(Nc4nccc(-c5cccnc5)n4)c3)cc(C(F)(F)F)c2)cn1 [nilotinib]
Outline: as §1

[2] = compound: Cc1nc(Nc2n[nH]c3c2CN(C(=O)N[C@H](CN(C)C)c2ccccc2)C3(C)C)c2sccc2n1
Outline: as §1

dasatinib = compound: Cc1nc(Nc2ncc(C(=O)Nc3c(C)cccc3Cl)s2)cc(N2CCN(CCO)CC2)n1 [dasatinib]
Outline: as §1

[3] = compound: Cc1ncc(-c2ccnc(Nc3ccc(S(C)(=O)=O)cc3)n2)n1C(C)C
Outline: as §1

[4] = compound: Cn1cc(-c2ccc3c(c2)CCN3C(=O)Cc2cccc(C(F)(F)F)c2)c2c(N)ncnc21
Outline: as §1

[5] = compound: Cn1cc(-c2ccc3nnc(C(F)(F)c4ccc5ncccc5c4)n3n2)cn1
Outline: as §1

tipifarnib = compound: Cn1cncc1[C@@](N)(c1ccc(Cl)cc1)c1ccc2c(c1)c(-c1cccc(Cl)c1)cc(=O)n2C [tipifarnib]
Outline: as §1

mubritinib = compound: FC(F)(F)c1ccc(/C=C/c2nc(COc3ccc(CCCCn4ccnn4)cc3)co2)cc1 [mubritinib]
Outline: as §1

[6] = compound: NC(=O)Nc1cc(-c2cccc(F)c2)sc1C(=O)N[C@H]1CCCNC1
Outline: as §1

[7] = compound: NC(=O)c1cnc(N[C@@H]2CCCC[C@@H]2N)nc1Nc1cccc(-n2nccn2)c1
Outline: as §1

[8] = compound: NC1(c2ccc(-c3nc4ccn5c(=O)[nH]nc5c4cc3-c3ccccc3)cc2)CCC1
Outline: as §1

[9] = compound: NCC(=O)Nc1ccc(-n2nc(C(F)(F)F)cc2-c2ccc3c(ccc4ccccc43)c2)cc1
Outline: as §1

entinostat = compound: Nc1ccccc1NC(=O)c1ccc(CNC(=O)OCc2cccnc2)cc1 [entinostat]
Outline: as §1

vorinostat = compound: O=C(CCCCCCC(=O)Nc1ccccc1)NO [vorinostat]
Outline: as §1

citarinostat = compound: O=C(CCCCCCNC(=O)c1cnc(N(c2ccccc2)c2ccccc2Cl)nc1)NO [citarinostat]
Outline: as §1

silmitasertib = compound: O=C(O)c1ccc2c(c1)nc(Nc1cccc(Cl)c1)c1ccncc12 [silmitasertib]
Outline: as §1

[10] = compound: O=C1NC(=O)C(c2cnc3ccccn23)=C1c1cn2c3c(cc(F)cc13)CN(C(=O)N1CCCCC1)CC2
Outline: as §1

[11] = compound: c1cc(OCCN2CCCCC2)cc(-c2n[nH]c3ccc(-c4nnc[nH]4)cc23)c1
Outline: as §1

Target	log2 fold change (bafetinib)	log2 fold change [1]	log2 fold change (nilotinib)	log2 fold change [2]	log2 fold change (dasatinib)	log2 fold change [3]	log2 fold change [4]	log2 fold change [5]	log2 fold change (tipifarnib)	log2 fold change (mubritinib)	log2 fold change [6]	log2 fold change [7]	log2 fold change [8]	log2 fold change [9]	log2 fold change (entinostat)	log2 fold change (vorinostat)	log2 fold change (citarinostat)	log2 fold change (silmitasertib)	log2 fold change [10]	log2 fold change [11]
CUX1 isoform 3 (UniProt P39880)	inactive: -0.054	inactive: -0.032	inactive: -0.008	inactive: -0.06	inactive: -0.016	inactive: 0.044	inactive: 0.023	inactive: 0.08	inactive: 0.046	inactive: 0.037	inactive: -0.016	inactive: -0.006	inactive: -0.034	inactive: -0.076	inactive: -0.028	inactive: 0.034	inactive: 0.019	inactive: 0.046	inactive: -0.022	inactive: -0.004
DAP3 (UniProt P51398)	inactive: 0.133	inactive: 0.133	inactive: -0.102	inactive: 0.023	inactive: -0.026	inactive: -0.006	inactive: -0.019	inactive: 0.04	inactive: -0.056	inactive: 0.087	inactive: 0.021	inactive: -0.008	inactive: -0.045	inactive: 0.009	inactive: 0.02	inactive: 0.083	inactive: 0.025	inactive: -0.033	inactive: -0.049	inactive: 0.01
CTBS (UniProt Q01459)	active: -0.483	inactive: -0.069	inactive: 0.016	inactive: -0.007	inactive: -0.006	inactive: -0.077	inactive: -0.093	inactive: 0.162	inactive: 0.091	inactive: 0.025	inactive: 0.088	inactive: -0.046	inactive: -0.268	inactive: -0.002	inactive: 0.058	inactive: -0.017	inactive: -0.026	inactive: -0.003	inactive: 0.051	inactive: -0.023
CSPP1 (UniProt Q1MSJ5)	inactive: -0.205	inactive: -0.055	inactive: 0.002	inactive: 0.016	inactive: 0.025	inactive: -0.046	inactive: -0.032	inactive: -0.017	inactive: 0.006	inactive: 0.016	inactive: 0.014	inactive: -0.099	inactive: -0.058	inactive: -0.064	inactive: -0.012	inactive: 0.015	inactive: 0.028	inactive: 0.02	inactive: 0.023	inactive: -0.072
CWC25 (UniProt Q9NXE8)	inactive: 0.401	inactive: 0.111	inactive: 0.062	inactive: -0.135	–	inactive: 0.113	inactive: -0.301	inactive: -0.092	–	inactive: -0.103	inactive: 0.024	inactive: 0.124	inactive: 0.187	–	inactive: -0.096	inactive: -0.099	inactive: 0.19	inactive: 0.188	inactive: 0.212	inactive: -0.262
CSTF1 (UniProt Q05048)	inactive: -0.03	inactive: -0.029	inactive: -0.031	inactive: 0.071	inactive: -0.002	inactive: 0.055	inactive: 0.066	inactive: 0	inactive: -0.032	inactive: 0	inactive: 0.014	inactive: -0.011	inactive: -0.009	inactive: 0.013	inactive: -0.023	inactive: -0.048	inactive: 0.021	inactive: 0.072	inactive: 0.038	inactive: 0.017
CT55 (UniProt Q8WUE5)	inactive: -0.119	inactive: -0.024	inactive: -0.038	inactive: -0.062	inactive: -0.007	inactive: -0.023	inactive: -0.056	–	inactive: -0.12	inactive: 0.013	inactive: -0.015	inactive: -0.07	inactive: -0.164	inactive: -0.126	inactive: 0.037	inactive: 0.086	inactive: 0.076	inactive: 0.121	inactive: -0.027	inactive: -0.083
CSTB (UniProt P04080)	inactive: 0.052	inactive: 0.076	inactive: 0.029	inactive: 0.019	inactive: 0.042	inactive: 0.013	inactive: 0.024	inactive: -0.025	inactive: -0.137	inactive: 0.004	inactive: -0.012	inactive: -0.152	inactive: -0.122	inactive: -0.083	inactive: 0.055	inactive: -0.035	inactive: 0.029	inactive: 0.072	inactive: -0.125	inactive: -0.156
CYB561A3 isoform 2 (UniProt Q8NBI2)	inactive: 0.03	inactive: -0.223	inactive: 0.012	inactive: 0.065	inactive: 0.034	inactive: -0.029	inactive: 0.004	inactive: -0.044	inactive: -0.087	inactive: -0.015	inactive: -0.019	inactive: -0.075	inactive: -0.066	–	inactive: -0.004	inactive: -0.254	inactive: -0.081	inactive: 0.04	–	inactive: 0.035
DCAF15 (UniProt Q66K64)	inactive: -0.06	–	inactive: -0.041	inactive: 0.039	inactive: 0.005	inactive: 0.025	inactive: 0.308	inactive: 0.043	inactive: -0.045	inactive: 0.159	inactive: -0.05	inactive: -0.098	inactive: -0.108	inactive: -0.1	inactive: -0.191	–	inactive: 0.075	inactive: -0.025	inactive: -0.031	inactive: 0.033
DAAM2 (UniProt Q86T65)	inactive: -0.145	–	inactive: -0.063	inactive: -0.054	inactive: -0.023	inactive: 0.039	–	inactive: 0.025	–	–	–	–	–	–	–	–	–	–	inactive: 0.149	–
CYP46A1 (UniProt Q9Y6A2)	inactive: -0.238	inactive: -0.261	–	–	inactive: 0.075	–	inactive: -0.129	inactive: 0.212	inactive: 0.198	inactive: 0.084	inactive: -0.262	inactive: -0.242	inactive: -0.139	inactive: -0.289	inactive: -0.028	inactive: -0.189	–	inactive: 0.01	–	–
DAXX (UniProt Q9UER7)	inactive: -0.119	inactive: -0.089	inactive: 0.055	inactive: -0.106	inactive: -0.034	inactive: 0	inactive: 0.061	inactive: -0.016	inactive: 0.034	–	inactive: 0.093	inactive: -0.103	–	inactive: -0.08	inactive: -0.099	inactive: 0.034	inactive: 0.075	–	–	inactive: -0.076
CSRP1 (UniProt P21291)	inactive: -0.001	inactive: 0.013	inactive: 0.007	inactive: -0.014	inactive: 0.105	inactive: 0.008	inactive: 0.044	inactive: -0.007	inactive: 0.011	inactive: 0.016	inactive: -0.012	inactive: -0.018	inactive: 0.022	inactive: 0	inactive: -0.016	inactive: -0.026	inactive: 0.021	inactive: -0.041	inactive: 0.008	inactive: -0.001
DCAF11 (UniProt Q8TEB1)	inactive: -0.018	inactive: -0.017	inactive: 0.011	inactive: 0.036	inactive: -0.002	inactive: 0.027	inactive: 0.021	inactive: 0.085	inactive: 0.013	inactive: 0.053	inactive: -0.059	inactive: -0.043	inactive: -0.057	inactive: 0	inactive: 0.017	inactive: -0.035	inactive: 0.054	inactive: 0.001	inactive: -0.013	inactive: -0.096
CST1 (UniProt P01037)	inactive: -0.112	–	inactive: 0	inactive: -0.027	inactive: -0.236	inactive: 0.163	–	–	–	inactive: 0.425	inactive: 0.289	–	inactive: -0.014	inactive: 0.08	inactive: 0.345	–	–	inactive: -0.029	inactive: -0.072	–
CYREN isoform 4 (UniProt Q9BWK5)	inactive: 0.026	inactive: -0.076	–	–	inactive: 0.18	–	–	–	inactive: 0.054	inactive: -0.064	–	inactive: -0.106	inactive: -0.095	inactive: 0.013	–	inactive: -0.116	–	inactive: 0.001	–	–

Shown bar-delimited: entries from further up
Target | log2 fold change (bafetinib) | log2 fold change [1] | log2 fold change (nilotinib) | log2 fold change [2] | log2 fold change (dasatinib) | log2 fold change [3] | log2 fold change [4] | log2 fold change [5] | log2 fold change (tipifarnib) | log2 fold change (mubritinib) | log2 fold change [6] | log2 fold change [7] | log2 fold change [8] | log2 fold change [9] | log2 fold change (entinostat) | log2 fold change (vorinostat) | log2 fold change (citarinostat) | log2 fold change (silmitasertib) | log2 fold change [10] | log2 fold change [11]
CUX1 isoform 3 (UniProt P39880) | inactive: -0.054 | inactive: -0.032 | inactive: -0.008 | inactive: -0.06 | inactive: -0.016 | inactive: 0.044 | inactive: 0.023 | inactive: 0.08 | inactive: 0.046 | inactive: 0.037 | inactive: -0.016 | inactive: -0.006 | inactive: -0.034 | inactive: -0.076 | inactive: -0.028 | inactive: 0.034 | inactive: 0.019 | inactive: 0.046 | inactive: -0.022 | inactive: -0.004
DAP3 (UniProt P51398) | inactive: 0.133 | inactive: 0.133 | inactive: -0.102 | inactive: 0.023 | inactive: -0.026 | inactive: -0.006 | inactive: -0.019 | inactive: 0.04 | inactive: -0.056 | inactive: 0.087 | inactive: 0.021 | inactive: -0.008 | inactive: -0.045 | inactive: 0.009 | inactive: 0.02 | inactive: 0.083 | inactive: 0.025 | inactive: -0.033 | inactive: -0.049 | inactive: 0.01

From the supplement of paper PMC10849652
